No constants are given. Whether binding was seen depends on the method and setting. In cells and extracts the contact can be indirect. Some results given as binding are weak or reduced against the parent protein; the word gives no strength. Tags and fused reporters may be left off the sequences shown.
Biological target: HA-Cdh1 (UniProt Q9UM11)
Assay: co-IP

Sequences of proteins named here, by UniProt entry; tags and fusion partners are left off.
UniProt Q9UM11: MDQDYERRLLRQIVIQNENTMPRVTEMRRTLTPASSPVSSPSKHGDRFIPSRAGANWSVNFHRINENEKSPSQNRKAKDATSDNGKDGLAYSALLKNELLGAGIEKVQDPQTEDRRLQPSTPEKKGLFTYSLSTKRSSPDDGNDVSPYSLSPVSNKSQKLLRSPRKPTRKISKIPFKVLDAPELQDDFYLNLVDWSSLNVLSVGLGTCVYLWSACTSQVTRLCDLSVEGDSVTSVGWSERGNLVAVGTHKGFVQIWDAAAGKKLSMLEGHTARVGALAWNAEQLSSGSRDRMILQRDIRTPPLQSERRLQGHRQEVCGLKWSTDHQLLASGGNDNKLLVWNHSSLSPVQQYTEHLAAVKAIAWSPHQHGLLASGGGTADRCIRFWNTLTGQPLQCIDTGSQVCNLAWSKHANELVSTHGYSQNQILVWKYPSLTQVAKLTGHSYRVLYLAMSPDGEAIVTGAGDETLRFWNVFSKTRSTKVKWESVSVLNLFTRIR

binding: binds
B1: Myc-UHRF1^WT (protein, UniProt Q96T88 1-793)
chain: MWIQVRTMDGRQTHTVDSLSRLTKVEELRRKIQELFHVEPGLQRLFYRGKQMEDGHTLFDYEVRLNDTIQLLVRQSLVLPHSTKERDSELSDTDSGCCLGQSESDKSSTHGEAAAETDSRPADEDMWDETELGLYKVNEYVDARDTNMGAWFEAQVVRVTRKAPSRDEPCSSTSRPALEEDVIYHVKYDDYPENGVVQMNSRDVRARARTIIKWQDLEVGQVVMLNYNPDNPKERGFWYDAEISRKRETRTARELYANVVLGDDSLNDCRIIFVDEVFKIERPGEGSPMVDNPMRRKSGPSCKHCKDDVNRLCRVCACHLCGGRQDPDKQLMCDECDMAFHIYCLDPPLSSVPSEDEWYCPECRNDASEVVLAGERLRESKKKAKMASATSSSQRDWGKGMACVGRTKECTIVPSNHYGPIPGIPVGTMWRFRVQVSESGVHRPHVAGIHGRSNDGAYSLVLAGGYEDDVDHGNFFTYTGSGGRDLSGNKRTAEQSCDQKLTNTNRALALNCFAPINDQEGAEAKDWRSGKPVRVVRNVKGGKNSKYAPAEGNRYDGIYKVVKYWPEKGKSGFLVWRYLLRRDDDEPGPWTKEGKDRIKKLGLTMQYPEGYLEALANREREKENSKREEEEQQEGGFASPRTGKGKWKRKSAGGGPSRAGSPRRTSKKTKVEPYSLTAQQSSLIREDKSNAKLWNEVLASLKDRPASGSPFQLFLSKVEETFQCICCQELVFRPITTVCQHNVCKDCLDRSFRAQVFSCPACRYDLGRSYAMQVNQPLQTVLNQLFPGYGNGR
